PubChem BioAssay AID1224830, NIAID – 2016
Test: 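Host factors that control LPS-induced TNF expression in human macrophages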 (primary screen). Cells: human THP-1 monocytic leukaemia cells, TNF dual-luciferase reporter clone, PMA-differentiated to macrophage-like cells. Knock-down reagent: siRNA pool against human genes, 50 nM. Duration: LPS for 4 h, given about 3 days after siRNA transfection. Conditions: bacterial LPS (TLR4 ligand), 10 ng/ml. Read-out: 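Ratio of firefly to renilla light, scaled to the plate median and expressed as a robust z-score per replicate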. Direction: TNF reporter robust z-score: higher = stronger TNF reporter response to LPS. Hit rule: 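Each well counts as active if its z-score is over 2.8 or under -1.5; controls are left without a call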.
The whole screen tested about 18,000 reagents; shown is a part drawn at random. Of all reagents, about 2,900 (16%) were called active. 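Calls are made per well; low scores hint the gene aids the LPS response, high scores that it dampens it.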 Entries without a mark were called inactive. Repeated entries: four replicate wells of each siRNA pool.

target | TNF reporter robust z-score
SRSF5 | -0.38
SRSF5 | -0.78
SRSF5 | -0.92
SRSF5 | -0.91
LYZL4 | -0.52
LYZL4 | -0.93
LYZL4 | -1.42
LYZL4 | -0.78
KRT34 | 1.52
KRT34 | 0.71
KRT34 | 3.49 (active)
KRT34 | 3.69 (active)
SRSF7 | -0.11
SRSF7 | 1.2
SRSF7 | 0.53
SRSF7 | 2.09
JCHAIN | 0.49
JCHAIN | 0.43
JCHAIN | -0.27
JCHAIN | -1.33
RAI1 | -0.26
RAI1 | 0.14
RAI1 | -0.44
RAI1 | -0.45
NMI | -1.26
NMI | -1.07
NMI | -1.12
NMI | -1.22
PDZK1IP1 | 0.06
PDZK1IP1 | -0.37
PDZK1IP1 | -0.17
PDZK1IP1 | -0.93
ABTB3 | 1.14
ABTB3 | -0.28
ABTB3 | -0.25
ABTB3 | -0.51
EPHB2 | 0.54
EPHB2 | -0.72
EPHB2 | 1.59
EPHB2 | 0.87
ALPK2 | 1.16
ALPK2 | 0.48
ALPK2 | 2.03
ALPK2 | 0.05
KDM5D | 1.68
KDM5D | -0.67
KDM5D | -1.03
KDM5D | -0.89

2 entries from above in another layout.
SRSF5
- TNF reporter robust z-score: -0.78

SRSF5
- TNF reporter robust z-score: -0.92
